Data taken from patent US7601352.
No constants are given. Whether binding was seen depends on the method and setting. Some results given as binding are weak or reduced against the parent protein; the word gives no strength.

The chains behind the UniProt entries cited, without tags or fusion partners. Where a name states a change or a piece, a line headed by the entry shows the natural chain unless it says otherwise. A line that says so, or that is headed by a name, gives the form on record, which may keep a tag or linker. Residues count along the entry.
UniProt P04629: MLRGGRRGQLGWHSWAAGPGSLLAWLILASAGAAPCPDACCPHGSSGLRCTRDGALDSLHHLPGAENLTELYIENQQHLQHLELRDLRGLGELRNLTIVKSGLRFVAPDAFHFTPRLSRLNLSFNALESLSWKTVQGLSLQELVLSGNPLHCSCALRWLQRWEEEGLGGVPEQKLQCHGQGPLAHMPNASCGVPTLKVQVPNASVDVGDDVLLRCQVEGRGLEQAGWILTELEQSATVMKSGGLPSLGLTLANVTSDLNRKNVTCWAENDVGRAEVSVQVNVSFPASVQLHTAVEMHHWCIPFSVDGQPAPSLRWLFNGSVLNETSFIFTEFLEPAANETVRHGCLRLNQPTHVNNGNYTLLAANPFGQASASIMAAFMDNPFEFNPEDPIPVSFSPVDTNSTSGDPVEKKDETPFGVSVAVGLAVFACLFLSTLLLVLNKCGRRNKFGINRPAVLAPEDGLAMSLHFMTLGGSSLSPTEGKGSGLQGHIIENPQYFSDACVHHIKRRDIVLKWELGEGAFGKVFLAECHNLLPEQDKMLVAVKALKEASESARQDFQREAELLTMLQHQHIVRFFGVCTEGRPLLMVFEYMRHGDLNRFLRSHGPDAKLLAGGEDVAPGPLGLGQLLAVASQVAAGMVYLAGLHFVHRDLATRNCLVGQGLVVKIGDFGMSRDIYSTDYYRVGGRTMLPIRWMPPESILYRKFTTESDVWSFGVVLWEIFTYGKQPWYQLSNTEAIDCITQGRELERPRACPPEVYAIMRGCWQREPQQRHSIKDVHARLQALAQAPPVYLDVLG
human TrkA receptor expressed on Balb/C 3T3 cells: residues 33-796 of P04629
TrkA immunoadhesin (extracellular domain of human TrkA fused to camel IgG2 Fc): residues 33-423 of P04629
UniProt P35739, residues 33-799: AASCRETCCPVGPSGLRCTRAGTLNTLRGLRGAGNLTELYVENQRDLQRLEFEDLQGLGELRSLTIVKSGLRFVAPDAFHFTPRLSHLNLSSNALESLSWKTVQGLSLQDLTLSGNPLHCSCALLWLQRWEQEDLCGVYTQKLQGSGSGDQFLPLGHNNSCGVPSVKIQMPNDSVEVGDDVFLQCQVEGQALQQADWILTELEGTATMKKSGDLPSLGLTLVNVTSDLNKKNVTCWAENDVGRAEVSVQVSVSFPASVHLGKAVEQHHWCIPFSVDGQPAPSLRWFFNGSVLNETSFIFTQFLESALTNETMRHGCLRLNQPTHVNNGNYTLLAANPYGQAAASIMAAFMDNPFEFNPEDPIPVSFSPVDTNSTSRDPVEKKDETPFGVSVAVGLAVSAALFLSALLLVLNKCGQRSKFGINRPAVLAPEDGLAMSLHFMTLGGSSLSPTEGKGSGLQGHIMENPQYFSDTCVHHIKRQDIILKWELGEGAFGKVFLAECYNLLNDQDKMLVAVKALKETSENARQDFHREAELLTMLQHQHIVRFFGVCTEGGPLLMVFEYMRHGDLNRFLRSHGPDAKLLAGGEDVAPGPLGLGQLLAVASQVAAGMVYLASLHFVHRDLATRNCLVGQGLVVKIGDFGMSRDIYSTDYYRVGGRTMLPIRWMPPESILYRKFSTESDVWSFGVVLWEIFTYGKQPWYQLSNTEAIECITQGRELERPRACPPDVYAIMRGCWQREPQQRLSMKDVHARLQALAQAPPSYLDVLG

Tests used:
[1] = molecular target: human TrkA receptor expressed on Balb/C 3T3 cells (human) (UniProt P04629); assay: inhibition of 125I-NGF binding to TrkA+ Balb/C 3T3 cells
[2] = molecular target: human TrkA receptor expressed on Balb/C 3T3 cells (human) (UniProt P04629); assay: FACS on TrkA+ Balb/C 3T3 cells against Balb/C 3T3 cells
[3] = molecular target: TrkA immunoadhesin (extracellular domain of human TrkA fused to camel IgG2 Fc) (human; camel) (UniProt P04629); assay: competition ELISA, TrkA immunoadhesin on solid phase, soluble TrkA immunoadhesin as competitor
rat TrkA receptor (rat) [4] = molecular target: rat TrkA receptor (rat) (UniProt P35739); assay: immunohistochemistry on rat basal forebrain sections
rat TrkA receptor (rat) [5] = molecular target: rat TrkA receptor (rat) (UniProt P35739); assay: immunohistochemistry on P10 rat basal forebrain sections
[6] = molecular target: human TrkA receptor expressed on Balb/C 3T3 cells (human) (UniProt P04629); assay: FACS on 3T3 TrkA+ cells; confirmed by immunofluorescence
[7] = molecular target: TrkA immunoadhesin (extracellular domain of human TrkA fused to camel IgG2 Fc) (human; camel) (UniProt P04629); assay: ELISA, TrkA-IgG on solid phase, 2 or 20 ng/ml antibody

Measured: binding

B1: MNAC13 monoclonal antibody (antibody, V domains shown)
VH: VKLMESGGGLVQPGGSLKLSCAASGFTFSTYTMSWARQTPEKRLEWVAYISKGGGSTYYPDTVKGRFTISRDNAKNTLYLQMSSLKSEDTALYYCARGAMYGNDFFYPMDYWGQGTSVTVSS
VL: DIVLSQSPAIMSASLGEEITLTCSASSSVSYMHWYQQKSGTSPKLLIYTTSNLASGVPSRFSGSGSGTFYSLTISSVEAEDAADYYCHQWSSYPWTFGGGTKLEIKR
binds: all assays above
